Measured values reported in EP1243581A1, “Pyridinium compounds useful for the treatment of AGE-related diseases” (Torrent Pharmaceuticals Ltd, priority 2001, dated 2002).
Some results were stated once for a whole list of compounds, not compound by compound.

The chains behind the UniProt entries cited, without tags or fusion partners. Residues count along the entry.
UniProt P02769, 25-607: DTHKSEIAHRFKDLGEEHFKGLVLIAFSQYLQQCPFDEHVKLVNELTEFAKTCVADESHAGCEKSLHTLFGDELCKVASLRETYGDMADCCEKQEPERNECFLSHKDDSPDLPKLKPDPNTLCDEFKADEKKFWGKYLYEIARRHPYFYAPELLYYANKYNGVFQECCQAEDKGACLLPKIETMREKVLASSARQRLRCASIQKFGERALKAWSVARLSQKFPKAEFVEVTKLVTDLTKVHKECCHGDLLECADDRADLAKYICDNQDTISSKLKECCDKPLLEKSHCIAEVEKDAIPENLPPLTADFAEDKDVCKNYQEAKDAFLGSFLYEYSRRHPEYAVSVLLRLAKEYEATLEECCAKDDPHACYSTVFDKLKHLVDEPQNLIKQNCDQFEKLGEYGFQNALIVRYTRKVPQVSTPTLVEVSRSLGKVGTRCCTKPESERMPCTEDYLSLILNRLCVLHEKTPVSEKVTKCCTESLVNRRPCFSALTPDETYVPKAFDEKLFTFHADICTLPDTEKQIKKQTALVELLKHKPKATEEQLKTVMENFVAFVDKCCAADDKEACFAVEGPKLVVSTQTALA

Target: T1, AGE-BSA (Bos taurus, UniProt P02769)
T1 construct: Bovine serum albumin (fraction V) (BSA); from tissue; host or cells: bovine serum (fraction V albumin)
Experiment: In-vitro screening for AGE-breaking activity (ELISA on 16 weeks AGE-BSA)
Type: biochemical, bovine
Details: comparison in words, from Table 2

Structure (SMILES)	AGE breaking activity compared to PTB	potency compared to PTB
O=C(NNC(=O)c1ccc[n+](CC(=O)c2cc([N+](=O)[O-])cs2)c1)c1ccc[n+](CC(=O)c2cc([N+](=O)[O-])cs2)c1 [Compound 38, N,N'-bis[3-carbonyl-1-(2-(4-nitro-thien-2-yl)-2-oxoethyl)pyridinium] hydrazine dichloride]	superior AGE breaking activity compared to PTB	–
CS(=O)(=O)NNC(=O)c1ccc[n+](CC(=O)c2cc([N+](=O)[O-])cs2)c1.[Br-] [Compound 46, 1-(2-(4-nitro-thien-2-yl)-2-oxoethyl)-3-(methanesulfonyl hydrazinocarbonyl) pyridinium bromide]	superior AGE breaking activity compared to PTB	significantly much higher
CS(=O)(=O)NNC(=O)c1ccc[n+](CC(=O)c2ccc(Cl)s2)c1.[Br-] [Compound 37, 1-(2-(5-chloro-thien-2-yl)-2-oxoethyl)-3-(methanesulfonyl hydrazinocarbonyl) pyridinium bromide]	superior AGE breaking activity compared to PTB	–
